According to patent US20230174548A1, “SYMBIOTIC PRODRUGS FOR THE TREATMENT OF CANCER AND OTHER DISEASES” (BOARD OF REGENTS OF THE UNIVERSITY OF NEBRASKA, priority 2020, published 2023):
For some assays here: At least one compound was matched to its structure with a doubt left. Some of these results come from one statement about several compounds together.

Columns and labels:
[1] = system: A2780 ovarian cancer line; experiment: 72 h growth inhibition assay; format: cell-based
Description: (§1) The cancer cell growth-inhibitory potential of amine-prodrugs (compounds 19-AP1 and 19-AP2) was evaluated. Compounds 19, 19-AP1 and 19-AP2 were screened in ovarian cancer lines (A2780, and OVSAHO) and immortalized fallopian tube epithelial cells (FT282E1) in a 72 h growth inhibition assay.

[2] = system: FT282E1 immortalized fallopian tube epithelial cells; experiment: 72 h growth inhibition assay; format: cell-based
Description: as §1

[3] = system: FTE282E1, OVSAHO, HPNE, MiaPaCa2 and S2013 cell lines; experiment: growth inhibition assays in a panel of five cell lines; conditions: irrespective of the cell line

| Compound | fold less active than the parent compound 19 [1] | fold less active than the parent compound 19 [2] | potency rank among inhibitors treated as single agents [3] |
| --- | --- | --- | --- |
| O=C1OC2(CC1CN1CCC(C(F)(F)F)CC1)C(=O)Nc1ccccc12 (centres unmarked) [Compound 19-AP1, 4-((4-(trifluoromethyl)piperidin-1-yl)methyl)-3,4-dihydro-5H-spiro[furan-2,3′-indoline]-2′,5dione] | 2-3 fold | 2-3 fold |  |
| CN(C)CC1CC2(OC1=O)C(=O)Nc1ccccc12 (centres unmarked) [Compound 19-AP2, 4-((dimethylamino)methyl)-3,4-dihydro-5H-spiro[furan-2,3′-indoline]-2′,5-dione] | 2-3 fold | 2-3 fold |  |
| CC(=O)c1c(C)c2cnc(Nc3ccc(N4CCNCC4)cn3)nc2n(C2CCCC2)c1=O [Palbociclib] |  |  | AT7519>compound 19>parthenolide>palbociclib |
